Source: PubChem BioAssay AID602203 (INSERM, 2012)
Purpose: 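Follow-up of knock-downs that sensitize or protect A549 cells against cisplatin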 (follow-up of hits). Cells: human A549 lung cancer cells. Knock-down reagent: siRNA pair against human genes. Challenge: cisplatin at a dose killing half of control-siRNA cells, given 48 h after transfection. Measured: 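Cisplatin at a dose killing 50% of control cells, 48 h post-transfection; each siRNA +1 protective, -1 sensitizing, 0 if toxic (LDH) or antiproliferative (WST-1); per-gene sum and mean death change versus control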. Reading the numbers: summed siRNA score for cisplatin death: higher = more siRNAs reduced cisplatin-induced cell death; change in cisplatin death versus control: higher = fewer cells died than in control. Active means: In these data the active calls have summed siRNA score for cisplatin death at about -3 or lower, or at about 3 or higher.
Shown is one part, drawn at random, of 999 deposited reagents. Of all reagents, 85 (8.5%) got an active call. 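Unclear how single-siRNA scores of -1, 0 or +1 give the printed -4 to 4 range; calls lie near -3 or 3 and beyond.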 Not stated in the record: the amount of reagent, the time to read-out, the dose of the treatment.

| Target gene | PubChem SID | summed siRNA score for cisplatin death | change in cisplatin death versus control (percentage points) | Call |
| --- | --- | --- | --- | --- |
| LTBP3 (latent transforming growth factor beta binding protein 3) | SID131523192 | -2 | – | inactive |
| FPR1 (formyl peptide receptor 1) | SID131500399 | -1 | – | inactive |
| MZT2B (mitotic spindle organizing protein 2B) | SID131500712 | -2 | – | inactive |
| NCKAP1 (NCK associated protein 1) | SID131500443 | -3 | -7.63 | active |
| NIT2 (nitrilase family member 2) | SID131522058 | 0 | – | inactive |
| USP48 (ubiquitin specific peptidase 48) | SID131502745 | 1 | – | inactive |
| NCOA3 (nuclear receptor coactivator 3) | SID131500613 | -3 | -11.2 | active |
| NCR3LG1 (natural killer cell cytotoxicity receptor 3 ligand 1) | SID131523001 | 0 | – | inactive |
| STK11 (serine/threonine kinase 11) | SID131523193 | 2 | – | inactive |
| ZNF80 (zinc finger protein 80) | SID131523034 | 0 | – | inactive |
| ASB8 (ankyrin repeat and SOCS box containing 8) | SID131500401 | 2 | – | inactive |
| NTN3 (netrin 3) | SID131522874 | 2 | – | inactive |
| PLA2G10 (phospholipase A2 group X) | SID131500303 | -1 | – | inactive |
| DAGLA (diacylglycerol lipase alpha) | SID131522950 | 2 | – | inactive |
| KCNG4 | SID131522792 | 1 | – | inactive |
| IL21 (interleukin 21) | SID131500502 | -2 | – | inactive |
| LOC342972 | SID131523056 | 3 | 13.1 | active |
| KCNB1 (potassium voltage-gated channel subfamily B member 1) | SID131500349 | -2 | – | inactive |
| PLEKHF1 (pleckstrin homology and FYVE domain containing 1) | SID131501842 | -1 | – | inactive |
| HS6ST1 (heparan sulfate 6-O-sulfotransferase 1) | SID131522542 | -1 | – | inactive |
| SCN11A (sodium voltage-gated channel alpha subunit 11) | SID131500496 | 1 | – | inactive |
| ERV3-1 (endogenous retrovirus group 3 member 1, envelope) | SID131522917 | 0 | – | inactive |
| IRF8 (interferon regulatory factor 8) | SID131523218 | 2 | – | inactive |
| APOA1 (apolipoprotein A1) | SID131500516 | 0 | – | inactive |
| ABCB8 (ATP binding cassette subfamily B member 8) | SID131500462 | -1 | – | inactive |
| LOC440065 | SID131522872 | 1 | – | inactive |
| ZNF572 (zinc finger protein 572) | SID131522927 | -1 | – | inactive |
| GH1 (growth hormone 1) | SID131502723 | -1 | – | inactive |
| ATF4 (activating transcription factor 4) | SID131522897 | 1 | – | inactive |
| MYH14 (myosin heavy chain 14) | SID131500336 | -1 | – | inactive |
| HP (haptoglobin) | SID131500449 | -1 | – | inactive |
| ARIH2 (ariadne RBR E3 ubiquitin protein ligase 2) | SID131500425 | -2 | – | inactive |
| RFPL2 (ret finger protein like 2) | SID131500343 | 1 | – | inactive |
| TOB2 (transducer of ERBB2, 2) | SID131523142 | 1 | – | inactive |
| LRIT2 (leucine rich repeat, Ig-like and transmembrane domains 2) | SID131523013 | -1 | – | inactive |
| HAS3 (hyaluronan synthase 3) | SID131522400 | 0 | – | inactive |
| MAT2A (methionine adenosyltransferase 2A) | SID131501492 | -3 | -13.5 | active |
| LOC283389 | SID131522797 | -1 | – | inactive |
| EPHA8 (EPH receptor A8) | SID131518912 | 0 | – | inactive |

Part of the list above, reformatted.
Target gene | PubChem SID | summed siRNA score for cisplatin death | change in cisplatin death versus control (percentage points) | Call
NCKAP1 (NCK associated protein 1) | SID131500443 | -3 | -7.63 | active
NIT2 (nitrilase family member 2) | SID131522058 | 0 | – | inactive
USP48 (ubiquitin specific peptidase 48) | SID131502745 | 1 | – | inactive
NCOA3 (nuclear receptor coactivator 3) | SID131500613 | -3 | -11.2 | active
NCR3LG1 (natural killer cell cytotoxicity receptor 3 ligand 1) | SID131523001 | 0 | – | inactive
STK11 (serine/threonine kinase 11) | SID131523193 | 2 | – | inactive
ZNF80 (zinc finger protein 80) | SID131523034 | 0 | – | inactive
ASB8 (ankyrin repeat and SOCS box containing 8) | SID131500401 | 2 | – | inactive
NTN3 (netrin 3) | SID131522874 | 2 | – | inactive
PLA2G10 (phospholipase A2 group X) | SID131500303 | -1 | – | inactive
DAGLA (diacylglycerol lipase alpha) | SID131522950 | 2 | – | inactive
KCNG4 | SID131522792 | 1 | – | inactive
IL21 (interleukin 21) | SID131500502 | -2 | – | inactive
LOC342972 | SID131523056 | 3 | 13.1 | active

Continued:
| Target gene | PubChem SID | summed siRNA score for cisplatin death | change in cisplatin death versus control (percentage points) | Call |
| --- | --- | --- | --- | --- |
| CATSPERD (catsper channel auxiliary subunit delta) | SID131523022 | 0 | – | inactive |
| ZBTB25 (zinc finger and BTB domain containing 25) | SID131500368 | -2 | – | inactive |
| PTPN7 (protein tyrosine phosphatase non-receptor type 7) | SID131500361 | -2 | – | inactive |
| MUL1 (mitochondrial E3 ubiquitin protein ligase 1) | SID131523211 | 1 | – | inactive |
| PRSS16 (serine protease 16) | SID131500384 | 2 | – | inactive |
| RNF139 (ring finger protein 139) | SID131500328 | -1 | – | inactive |
| PPM1B (protein phosphatase, Mg2+/Mn2+ dependent 1B) | SID131500356 | -3 | -4.3 | active |
| USP5 (ubiquitin specific peptidase 5) | SID131500555 | 0 | – | inactive |
| LOC390913 | SID131523078 | 2 | – | inactive |
| DHRSX (dehydrogenase/reductase X-linked) | SID131521492 | 3 | 10.6 | active |
| LOC199897 (retired record) | SID131523072 | 0 | – | inactive |
| TCF7L2 (transcription factor 7 like 2) | SID131501302 | -1 | – | inactive |
| LOC441137 | SID131522985 | 2 | – | inactive |
| GPC2 (glypican 2) | SID131500946 | -1 | – | inactive |
| LOC139516 | SID131522843 | 0 | – | inactive |
| C1QL3 (complement C1q like 3) | SID131522963 | 0 | – | inactive |
| KLF8 (KLF transcription factor 8) | SID131523046 | 2 | – | inactive |
| TMEM234 (transmembrane protein 234) | SID131500392 | -3 | -7.97 | active |
| NUP62 (nucleoporin 62) | SID131500507 | 0 | – | inactive |
| PAFAH1B3 | SID131500546 | 1 | – | inactive |
| RPGRIP1 (RPGR interacting protein 1) | SID131500538 | -1 | – | inactive |
| CACNA2D4 | SID131501297 | -2 | – | inactive |
| PBXIP1 (PBX homeobox interacting protein 1) | SID131522967 | 0 | – | inactive |
| ESM1 (endothelial cell specific molecule 1) | SID131500381 | 0 | – | inactive |
| CEP57L1P1 (centrosomal protein 57 like 1 pseudogene 1) | SID131523027 | -1 | – | inactive |
| RPA3 (replication protein A3) | SID131500406 | 0 | – | inactive |
| SRP72 (signal recognition particle 72) | SID131522988 | -1 | – | inactive |
| NPC2 (NPC intracellular cholesterol transporter 2) | SID131500408 | 0 | – | inactive |
| LOC442728 | SID131523054 | 1 | – | inactive |
| LOC440336 | SID131522916 | 0 | – | inactive |
| SLC27A6 | SID131522877 | 2 | – | inactive |
| PLAAT3 (phospholipase A and acyltransferase 3) | SID131500475 | 0 | – | inactive |
| PCCA (propionyl-CoA carboxylase subunit alpha) | SID131500864 | -2 | – | inactive |
| KIAA0408 | SID131521579 | -1 | – | inactive |
| GAS8-AS1 (GAS8 antisense RNA 1) | SID131500385 | -1 | – | inactive |
| DTNBP1 (dystrobrevin binding protein 1) | SID131522700 | 2 | – | inactive |
| LOC387854 | SID131519435 | 0 | – | inactive |
| TGFBR2 (transforming growth factor beta receptor 2) | SID131523040 | 0 | – | inactive |
| TUBB3 (tubulin beta 3 class III) | SID131500627 | -1 | – | inactive |
| LHFPL5 (LHFPL tetraspan subfamily member 5) | SID131523031 | -1 | – | inactive |
| SUDS3 (SIN3A corepressor complex component SDS3) | SID131500659 | -2 | – | inactive |
| MED26 (mediator complex subunit 26) | SID131500956 | -2 | – | inactive |
| H1-5 (H1.5 linker histone, cluster member) | SID131521505 | 0 | – | inactive |
| DLEU2 (deleted in lymphocytic leukemia 2) | SID131521547 | 0 | – | inactive |
| ZNF75D (zinc finger protein 75D) | SID131522437 | -1 | – | inactive |
| PIKFYVE (phosphoinositide kinase, FYVE-type zinc finger containing) | SID131523129 | 2 | – | inactive |
| LOC440301 | SID131522788 | 0 | – | inactive |
| PKP3 (plakophilin 3) | SID131522845 | 1 | – | inactive |
| SIGLEC7 (sialic acid binding Ig like lectin 7) | SID131500483 | -1 | – | inactive |
| MED24 (mediator complex subunit 24) | SID131500350 | -2 | – | inactive |
| CDK15 (cyclin dependent kinase 15) | SID131523232 | 0 | – | inactive |
| PSMA8 (proteasome 20S subunit alpha 8) | SID131502359 | 0 | – | inactive |
| ACTE1P (actin epsilon 1, pseudogene) | SID131502764 | 1 | – | inactive |
| FLJ25339 | SID131500860 | -2 | – | inactive |
| FRMD6-AS1 (FRMD6 antisense RNA 1) | SID131522962 | 1 | – | inactive |
| SLC25A38P1 (SLC25A38 pseudogene 1) | SID131522959 | 2 | – | inactive |
| KHSRP (KH-type splicing regulatory protein) | SID131500317 | -3 | -10.2 | active |
| RASSF1 (Ras association domain family member 1) | SID131502762 | -1 | – | inactive |
| MSRA (methionine sulfoxide reductase A) | SID131522685 | -1 | – | inactive |
| LINC00336 (long independently transcribed non-coding RNA 336) | SID131523132 | 1 | – | inactive |
| LMTK1 (lemur tail kinase 1) | SID131523102 | 1 | – | inactive |
| SLC4A9 | SID131523106 | 1 | – | inactive |
| HPR (haptoglobin-related protein) | SID131521608 | 1 | – | inactive |
| IGFBP1 (insulin like growth factor binding protein 1) | SID131501136 | -1 | – | inactive |
| MKNK1 (MAPK interacting serine/threonine kinase 1) | SID131523108 | 0 | – | inactive |
| SERPINF1 (serpin family F member 1) | SID131502796 | 1 | – | inactive |
| KIF2C (kinesin family member 2C) | SID131521063 | 1 | – | inactive |
| FLJ10707 | SID131501823 | -1 | – | inactive |
